Results are given in words; binding and its absence hold for the method and conditions named. Binding seen in cells or lysates may run through a third protein.
Key:
[1] = target: FLAG-tagged SUZ12 RIF truncation (UniProt Q15022); experiment: co-IP
[2] = target: FLAG-tagged SUZ12 NEC truncation (UniProt Q15022); experiment: co-IP

Chains of the proteins cited; added tags and fusions are not shown. A line that says so, or that is headed by a name, gives the form on record, which may keep a tag or linker. Residues count along the entry.
FLAG-tagged SUZ12 RIF truncation (Q15022, residues 427-739): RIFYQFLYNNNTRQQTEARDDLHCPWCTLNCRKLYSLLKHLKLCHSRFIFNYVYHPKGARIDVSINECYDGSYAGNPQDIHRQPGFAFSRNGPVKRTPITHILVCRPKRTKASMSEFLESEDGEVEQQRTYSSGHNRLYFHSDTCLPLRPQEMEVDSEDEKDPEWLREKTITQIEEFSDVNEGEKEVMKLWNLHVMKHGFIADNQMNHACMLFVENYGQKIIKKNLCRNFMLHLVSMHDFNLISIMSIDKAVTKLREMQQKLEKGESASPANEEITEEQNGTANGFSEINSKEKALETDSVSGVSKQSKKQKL
FLAG-tagged SUZ12 NEC truncation (Q15022, residues 492-739): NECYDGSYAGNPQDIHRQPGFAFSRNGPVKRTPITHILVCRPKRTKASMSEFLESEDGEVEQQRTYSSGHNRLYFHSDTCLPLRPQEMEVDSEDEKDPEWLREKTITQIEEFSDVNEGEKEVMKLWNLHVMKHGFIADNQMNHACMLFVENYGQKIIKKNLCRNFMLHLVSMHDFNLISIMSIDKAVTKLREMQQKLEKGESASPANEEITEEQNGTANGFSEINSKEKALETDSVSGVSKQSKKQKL
UniProt Q9Y483: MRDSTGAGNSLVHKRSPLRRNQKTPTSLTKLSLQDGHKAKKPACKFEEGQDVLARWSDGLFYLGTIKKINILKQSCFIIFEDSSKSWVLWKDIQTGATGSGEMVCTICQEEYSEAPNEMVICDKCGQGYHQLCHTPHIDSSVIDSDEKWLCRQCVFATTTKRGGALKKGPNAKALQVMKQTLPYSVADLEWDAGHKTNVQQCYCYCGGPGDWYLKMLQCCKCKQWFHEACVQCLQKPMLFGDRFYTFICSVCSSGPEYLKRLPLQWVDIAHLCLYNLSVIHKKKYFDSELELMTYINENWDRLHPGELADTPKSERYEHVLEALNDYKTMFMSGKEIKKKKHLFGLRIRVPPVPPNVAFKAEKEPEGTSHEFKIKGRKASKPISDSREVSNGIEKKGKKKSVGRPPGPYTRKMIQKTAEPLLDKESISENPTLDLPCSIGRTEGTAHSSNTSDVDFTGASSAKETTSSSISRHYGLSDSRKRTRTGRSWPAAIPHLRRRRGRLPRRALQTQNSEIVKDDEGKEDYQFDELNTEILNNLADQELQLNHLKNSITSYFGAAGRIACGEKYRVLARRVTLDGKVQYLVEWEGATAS

In the case of MTF2 (from UniProt Q9Y483 1-593), the binding [1] is reported as “no binding” and the binding [2] is reported as “no binding”.

From publication doi:10.1101/2025.07.18.665585
